Our source for the binding values is article doi:10.64898/2025.12.19.695442.

The chains behind the UniProt entries cited, without tags or fusion partners.
UniProt O94972: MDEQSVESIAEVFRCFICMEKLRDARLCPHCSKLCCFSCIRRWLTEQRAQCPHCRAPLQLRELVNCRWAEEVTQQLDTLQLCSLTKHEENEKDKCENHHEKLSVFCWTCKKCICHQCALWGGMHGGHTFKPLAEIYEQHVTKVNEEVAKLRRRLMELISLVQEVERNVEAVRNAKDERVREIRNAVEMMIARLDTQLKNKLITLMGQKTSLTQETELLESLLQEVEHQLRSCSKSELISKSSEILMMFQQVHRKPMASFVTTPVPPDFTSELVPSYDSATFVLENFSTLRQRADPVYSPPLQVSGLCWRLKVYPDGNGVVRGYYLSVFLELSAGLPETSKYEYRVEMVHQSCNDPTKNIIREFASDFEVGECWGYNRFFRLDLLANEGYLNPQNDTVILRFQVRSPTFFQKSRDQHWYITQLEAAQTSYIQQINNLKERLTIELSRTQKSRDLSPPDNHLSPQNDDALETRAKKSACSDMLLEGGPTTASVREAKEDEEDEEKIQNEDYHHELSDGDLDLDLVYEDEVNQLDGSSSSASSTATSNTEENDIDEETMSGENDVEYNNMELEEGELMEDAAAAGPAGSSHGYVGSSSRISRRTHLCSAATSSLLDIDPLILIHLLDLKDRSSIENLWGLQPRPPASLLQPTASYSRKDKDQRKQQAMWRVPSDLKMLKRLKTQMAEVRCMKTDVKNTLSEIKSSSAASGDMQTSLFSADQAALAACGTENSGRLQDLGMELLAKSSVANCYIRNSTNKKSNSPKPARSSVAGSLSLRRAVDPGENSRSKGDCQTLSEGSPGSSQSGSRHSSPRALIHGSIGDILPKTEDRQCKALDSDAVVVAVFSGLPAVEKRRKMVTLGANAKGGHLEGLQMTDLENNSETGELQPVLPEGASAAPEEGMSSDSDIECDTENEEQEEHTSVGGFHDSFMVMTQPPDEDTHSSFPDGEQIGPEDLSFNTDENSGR

The target in this experiment is TRIM37 (UniProt O94972). As to the kind of experiment: pull-down; TRIM37 (1 ug) held on Protein A Dynabeads conjugated with TRIM37 antibody; purified GFP-tagged Cep192 fragments (1 uM), 1 hr at 37°C; washes 150 mM KCl, last wash 500 mM KCl; Western blot against GFP; both purified.

Results are given in words; binding and its absence hold for the method and conditions named. Sequences can lack the tags named with a protein.

B1: GFP-tagged Cep192 C-terminal truncation lacking ASH8 (domain or fragment, UniProt Q8TEP8-3 2070-2437)
chain: REFLQPSSKASLESTSDLGASGKHGGNVSLDVLPVKGPQGSPLLSRAARPPLDQLASEEPWTVLPEHLILVAPSPCDMAKTGRFQIVNNSVRLLRFELCWPAHCLTVTPQHGCVAPESKLQILVSPNSSLSTKQSMFPWSGLIYIHCDDGQKKIVKVQIREDLTQVELLTRLTSKPFGILSPVSEPSVSHLVKPMTKPPSTKVEIRNKSITFPTTEPGETSESCLELENHGTTDVKWHLSSLAPPYVKGVDESGDVFRATYAAFRCSPISGLLESHGIQKVSITFLPRGRGDYAQFWDVECHPLKEPHMKHTLRFQLSGQSIEAENEPENACLSTDSLIKIDHLVKPRRQAVSEASARIPEQLDVTAR
On to B1, for which the binding result was “no binding (tested: 1 μM Cep192 construct, 1 μg TRIM37)”.
